We go through one molecule from publication PMC5621702.

Results are given in words; binding and its absence hold for the method and conditions named. Binding calls can cover weak binding; strength is not graded here.

The assay has as its target retinoid X receptor (RXR). Description: native gel or EMSA; 32P-labelled oligonucleotide probes with the mouse Gata1 TRE1 or TRE2; TRα1 made by in vitro transcription/translation, in increasing concentrations; bands of TR/RXR heterodimers on the DNA, supershifted by anti-TRα1 or anti-TRα1PV antibodies, competed by unlabelled TRE. (In general: A gel shift assay detects complexes by their altered migration in electrophoresis.)

B1: thyroid hormone receptor α1 (TRα1) (receptor, UniProt P63058-2 1-410)
chain: MEQKPSKVECGSDPEENSARSPDGKRKRKNGQCPLKSSMSGYIPSYLDKDEQCVVCGDKATGYHYRCITCEGCKGFFRRTIQKNLHPTYSCKYDSCCVIDKITRNQCQLCRFKKCIAVGMAMDLVLDDSKRVAKRKLIEQNRERRRKEEMIRSLQQRPEPTPEEWDLIHVATEAHRSTNAQGSHWKQRRKFLPDDIGQSPIVSMPDGDKVDLEAFSEFTKIITPAITRVVDFAKKLPMFSELPCEDQIILLKGCCMEIMSLRAAVRYDPESDTLTLSGEMAVKREQLKNGGLGVVSDAIFELGKSLSAFNLDDTEVALLQAVLLMSTDRSGLLCVDKIEKSQEAYLLAFEHYVNHRKHNIPHFWPKLLMKVTDLRMIGACHASRFLHMKVECPTELFPPLFLEVFEDQEV
B1: the binding entry is “binds”.
